Results taken from doi:10.1101/2025.11.10.686860.
No constants are given. Whether binding was seen depends on the method and setting. In cells and extracts the contact can be indirect. Some results given as binding are weak or reduced against the parent protein; the word gives no strength. For part of these data: Where a sequence is shown, tags or fusion partners need not be part of it. Values belong to the binder of their own block, whether it stands above or below them.

How the values were obtained:
[1] = molecular target: FLAG-KRAS 4B wild type, P01116; assay: co-IP; conditions: remark: other sources report otherwise
FLAG-KRAS 4B G12A = FLAG-KRAS 4B G12A (UniProt P01116); assay: co-IP
FLAG-KRAS 4B G12C = FLAG-KRAS 4B G12C (UniProt P01116); assay: co-IP
FLAG-KRAS 4B G12D = FLAG-KRAS 4B G12D (UniProt P01116); assay: co-IP
FLAG-KRAS 4B Q61R = FLAG-KRAS 4B Q61R (UniProt P01116); assay: co-IP
FLAG-KRAS 4B S17N = FLAG-KRAS 4B S17N (UniProt P01116); assay: co-IP
[2] = molecular target: KRAS G12C (endogenous, H358 cells) (human (endogenous in H358)) (UniProt P01116); assay: pull-down

B2: MYC-eIF2Bα (protein, UniProt Q14232 1-305)
chain: MDDKELIEYFKSQMKEDPDMASAVAAIRTLLEFLKRDKGETIQGLRANLTSAIETLCGVDSSVAVSSGGELFLRFISLASLEYSDYSKCKKIMIERGELFLRRISLSRNKIADLCHTFIKDGATILTHAYSRVVLRVLEAAVAAKKRFSVYVTESQPDLSGKKMAKALCHLNVPVTVVLDAAVGYIMEKADLVIVGAEGVVENGGIINKIGTNQMAVCAKAQNKPFYVVAESFKFVRLFPLNQQDVPDKFKYKADTLKVAQTGQDLKEEHPWVDYTAPSLITLLFTDLGVLTPSAVSDELIKLYL
binding (FLAG-KRAS 4B G12A): binds | binding (FLAG-KRAS 4B G12C): binds | binding (FLAG-KRAS 4B G12D): binds | binding (FLAG-KRAS 4B Q61R): binds | binding (FLAG-KRAS 4B S17N): no binding

B4: MYC-eIF2Bα, Q14232 1-305 (protein)
chain: MDDKELIEYFKSQMKEDPDMASAVAAIRTLLEFLKRDKGETIQGLRANLTSAIETLCGVDSSVAVSSGGELFLRFISLASLEYSDYSKCKKIMIERGELFLRRISLSRNKIADLCHTFIKDGATILTHAYSRVVLRVLEAAVAAKKRFSVYVTESQPDLSGKKMAKALCHLNVPVTVVLDAAVGYIMEKADLVIVGAEGVVENGGIINKIGTNQMAVCAKAQNKPFYVVAESFKFVRLFPLNQQDVPDKFKYKADTLKVAQTGQDLKEEHPWVDYTAPSLITLLFTDLGVLTPSAVSDELIKLYL
binding [1]: no binding

Next, values leading:

binding [1]: no binding
B1: MYC-eIF2Bγ, Q9NR50 1-452 (protein)
chain: MEFQAVVMAVGGGSRMTDLTSSIPKPLLPVGNKPLIWYPLNLLERVGFEEVIVVTTRDVQKALCAEFKMKMKPDIVCIPDDADMGTADSLRYIYPKLKTDVLVLSCDLITDVALHEVVDLFRAYDASLAMLMRKGQDSIEPVPGQKGKKKAVEQRDFIGVDSTGKRLLFMANEADLDEELVIKGSILQKHPRIRFHTGLVDAHLYCLKKYIVDFLMENGSITSIRSELIPYLVRKQFSSASSQQGQEEKEEDLKKKELKSLDIYSFIKEANTLNLAPYDACWNACRGDRWEDLSRSQVRCYVHIMKEGLCSRVSTLGLYMEANRQVPKLLSALCPEEPPVHSSAQIVSKHLVGVDSLIGPETQIGEKSSIKRSVIGSSCLIKDRVTITNCLLMNSVTVEEGSNIQGSVICNNAVIEKGADIKDCLIGSGQRIEAKAKRVNEVIVGNDQLMEI

binding [2]: binds
B3: eIF2Bα (endogenous) (protein, UniProt Q14232 1-305)
chain: MDDKELIEYFKSQMKEDPDMASAVAAIRTLLEFLKRDKGETIQGLRANLTSAIETLCGVDSSVAVSSGGELFLRFISLASLEYSDYSKCKKIMIERGELFLRRISLSRNKIADLCHTFIKDGATILTHAYSRVVLRVLEAAVAAKKRFSVYVTESQPDLSGKKMAKALCHLNVPVTVVLDAAVGYIMEKADLVIVGAEGVVENGGIINKIGTNQMAVCAKAQNKPFYVVAESFKFVRLFPLNQQDVPDKFKYKADTLKVAQTGQDLKEEHPWVDYTAPSLITLLFTDLGVLTPSAVSDELIKLYL

binding [1]: no binding
B5: MYC-eIF2Bβ, P49770 1-351 (protein)
chain: MPGSAAKGSELSERIESFVETLKRGGGPRSSEEMARETLGLLRQIITDHRWSNAGELMELIRREGRRMTAAQPSETTVGNMVRRVLKIIREEYGRLHGRSDESDQQESLHKLLTSGGLNEDFSFHYAQLQSNIIEAINELLVELEGTMENIAAQALEHIHSNEVIMTIGFSRTVEAFLKEAARKRKFHVIVAECAPFCQGHEMAVNLSKAGIETTVMTDAAIFAVMSRVNKVIIGTKTILANGALRAVTGTHTLALAAKHHSTPLIVCAPMFKLSPQFPNEEDSFHKFVAPEEVLPFTEGDILEKVSVHCPVFDYVPPELITLFISNIGGNAPSYIYRLMSELYHPDDHVL
